Paper PMC6299615
These are yes or no findings as the source states them, for the method shown. Binding seen in cells or lysates may run through a third protein. Some binding calls cover weakened binding; strength is not graded here. Values belong to the molecule of their own block, whether it stands above or below them.

Sequences of proteins named here, by UniProt entry; tags and fusion partners are left off.
UniProt P46937: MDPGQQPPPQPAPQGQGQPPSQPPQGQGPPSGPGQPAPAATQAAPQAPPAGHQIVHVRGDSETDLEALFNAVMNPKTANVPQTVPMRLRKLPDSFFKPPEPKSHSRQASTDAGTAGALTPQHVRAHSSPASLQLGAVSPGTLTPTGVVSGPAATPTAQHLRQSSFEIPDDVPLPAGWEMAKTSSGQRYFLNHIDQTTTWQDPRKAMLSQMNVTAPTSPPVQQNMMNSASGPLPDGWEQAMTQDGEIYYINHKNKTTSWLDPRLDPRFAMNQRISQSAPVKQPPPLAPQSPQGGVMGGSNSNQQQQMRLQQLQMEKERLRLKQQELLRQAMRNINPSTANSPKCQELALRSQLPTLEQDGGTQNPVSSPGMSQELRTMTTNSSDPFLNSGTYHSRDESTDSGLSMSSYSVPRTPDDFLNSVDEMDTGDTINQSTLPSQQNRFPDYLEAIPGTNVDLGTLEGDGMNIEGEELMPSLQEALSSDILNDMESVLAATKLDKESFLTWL

Columns and labels:
[1] = biological target: T1, p73 (human (endogenous in MCF-7)) (UniProt O15350); experiment: co-IP; endogenous proteins in MCF-7 lysate; precipitated with an anti-p73 antibody, blotted for YAP; cells treated with ABF with or without the JNK inhibitor SP600125
T1 sequence: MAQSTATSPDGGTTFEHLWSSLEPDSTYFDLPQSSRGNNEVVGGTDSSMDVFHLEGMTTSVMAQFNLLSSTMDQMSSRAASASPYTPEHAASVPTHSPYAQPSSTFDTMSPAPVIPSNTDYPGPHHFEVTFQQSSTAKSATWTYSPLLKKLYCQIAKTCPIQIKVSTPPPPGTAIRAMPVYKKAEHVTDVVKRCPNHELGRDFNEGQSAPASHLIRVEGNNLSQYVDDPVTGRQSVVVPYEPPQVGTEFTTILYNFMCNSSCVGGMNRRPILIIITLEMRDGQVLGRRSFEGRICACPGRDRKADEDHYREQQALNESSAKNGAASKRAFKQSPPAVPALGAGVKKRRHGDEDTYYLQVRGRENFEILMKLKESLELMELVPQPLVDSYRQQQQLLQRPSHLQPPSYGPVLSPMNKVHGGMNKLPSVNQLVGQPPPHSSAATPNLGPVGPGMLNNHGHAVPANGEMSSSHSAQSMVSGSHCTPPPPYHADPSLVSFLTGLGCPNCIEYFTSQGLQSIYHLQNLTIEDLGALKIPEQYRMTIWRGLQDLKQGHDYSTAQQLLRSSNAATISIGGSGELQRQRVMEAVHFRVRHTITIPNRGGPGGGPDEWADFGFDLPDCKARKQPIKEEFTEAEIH

[2] = biological target: Yes-associated protein (human (endogenous in MCF-7)) (UniProt P46937); experiment: co-IP; endogenous proteins in MCF-7 lysate; precipitated with an anti-YAP antibody on protein G magnetic beads, overnight at 4 °C, blotted for p73; cells with or without ABF (20 nM)

binding [1]: binds
Molecule: Yes-associated protein (from UniProt P46937 1-504)

binding [2]: binds
B1: p73 (protein, UniProt O15350 1-636)
chain: T1 sequence
